Data taken from paper PMC5589800.

The chains behind the UniProt entries cited, without tags or fusion partners. Residues count along the entry.
UniProt O14508: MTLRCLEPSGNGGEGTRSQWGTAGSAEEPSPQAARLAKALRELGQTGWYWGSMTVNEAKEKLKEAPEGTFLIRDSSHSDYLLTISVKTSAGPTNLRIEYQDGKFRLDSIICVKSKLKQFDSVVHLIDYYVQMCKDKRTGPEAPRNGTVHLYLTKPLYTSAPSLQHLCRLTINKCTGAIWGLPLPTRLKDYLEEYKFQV
UniProt P61201: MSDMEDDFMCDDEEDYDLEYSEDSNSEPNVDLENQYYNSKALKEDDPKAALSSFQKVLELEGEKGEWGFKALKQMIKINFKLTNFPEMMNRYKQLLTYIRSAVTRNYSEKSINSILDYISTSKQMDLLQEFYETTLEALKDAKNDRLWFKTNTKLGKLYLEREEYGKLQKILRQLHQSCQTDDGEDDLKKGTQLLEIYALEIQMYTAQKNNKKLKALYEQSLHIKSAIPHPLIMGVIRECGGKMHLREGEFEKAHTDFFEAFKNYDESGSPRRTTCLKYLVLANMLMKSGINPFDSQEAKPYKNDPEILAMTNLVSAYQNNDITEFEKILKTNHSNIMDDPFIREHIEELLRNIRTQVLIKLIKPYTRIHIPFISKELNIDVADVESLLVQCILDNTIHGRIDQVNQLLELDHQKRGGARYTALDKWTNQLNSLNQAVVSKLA
UniProt Q9UNS2: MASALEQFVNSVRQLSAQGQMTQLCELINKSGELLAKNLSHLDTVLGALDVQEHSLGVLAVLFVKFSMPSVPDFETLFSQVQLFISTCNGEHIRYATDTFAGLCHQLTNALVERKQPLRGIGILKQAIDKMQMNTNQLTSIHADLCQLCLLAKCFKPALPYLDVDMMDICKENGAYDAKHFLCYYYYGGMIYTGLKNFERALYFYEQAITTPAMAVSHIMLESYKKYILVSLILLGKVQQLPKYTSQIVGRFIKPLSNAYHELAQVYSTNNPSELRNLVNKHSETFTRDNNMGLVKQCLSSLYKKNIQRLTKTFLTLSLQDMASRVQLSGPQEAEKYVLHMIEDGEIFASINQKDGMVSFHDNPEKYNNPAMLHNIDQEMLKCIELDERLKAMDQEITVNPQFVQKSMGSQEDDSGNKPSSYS
UniProt P35222: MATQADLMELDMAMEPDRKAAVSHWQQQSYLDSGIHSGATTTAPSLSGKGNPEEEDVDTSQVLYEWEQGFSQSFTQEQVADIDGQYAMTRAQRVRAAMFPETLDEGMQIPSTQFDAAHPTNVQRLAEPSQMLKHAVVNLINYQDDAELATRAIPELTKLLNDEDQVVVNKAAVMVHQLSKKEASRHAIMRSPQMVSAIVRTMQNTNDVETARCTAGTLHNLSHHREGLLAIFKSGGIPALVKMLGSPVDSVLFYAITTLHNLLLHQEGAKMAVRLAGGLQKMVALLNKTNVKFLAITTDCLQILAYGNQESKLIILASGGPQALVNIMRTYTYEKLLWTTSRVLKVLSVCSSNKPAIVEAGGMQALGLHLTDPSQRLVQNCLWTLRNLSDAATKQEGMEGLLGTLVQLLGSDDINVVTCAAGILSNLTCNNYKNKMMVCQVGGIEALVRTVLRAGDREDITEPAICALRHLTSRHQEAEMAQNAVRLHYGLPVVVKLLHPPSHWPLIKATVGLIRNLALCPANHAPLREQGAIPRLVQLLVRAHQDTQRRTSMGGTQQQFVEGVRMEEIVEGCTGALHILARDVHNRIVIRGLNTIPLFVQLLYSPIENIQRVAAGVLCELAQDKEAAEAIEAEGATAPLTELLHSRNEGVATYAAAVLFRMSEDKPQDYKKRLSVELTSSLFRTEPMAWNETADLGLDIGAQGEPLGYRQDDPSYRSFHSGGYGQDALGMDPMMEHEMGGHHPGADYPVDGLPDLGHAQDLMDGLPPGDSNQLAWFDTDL
UniProt P46108: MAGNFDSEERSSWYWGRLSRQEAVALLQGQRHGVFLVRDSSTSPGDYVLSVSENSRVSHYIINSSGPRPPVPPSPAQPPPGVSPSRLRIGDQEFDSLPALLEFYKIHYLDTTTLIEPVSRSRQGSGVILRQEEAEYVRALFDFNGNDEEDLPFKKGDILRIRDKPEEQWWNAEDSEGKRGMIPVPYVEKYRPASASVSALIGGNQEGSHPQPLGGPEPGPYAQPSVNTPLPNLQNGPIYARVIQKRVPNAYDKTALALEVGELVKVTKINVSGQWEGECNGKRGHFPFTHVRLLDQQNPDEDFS
UniProt Q93034: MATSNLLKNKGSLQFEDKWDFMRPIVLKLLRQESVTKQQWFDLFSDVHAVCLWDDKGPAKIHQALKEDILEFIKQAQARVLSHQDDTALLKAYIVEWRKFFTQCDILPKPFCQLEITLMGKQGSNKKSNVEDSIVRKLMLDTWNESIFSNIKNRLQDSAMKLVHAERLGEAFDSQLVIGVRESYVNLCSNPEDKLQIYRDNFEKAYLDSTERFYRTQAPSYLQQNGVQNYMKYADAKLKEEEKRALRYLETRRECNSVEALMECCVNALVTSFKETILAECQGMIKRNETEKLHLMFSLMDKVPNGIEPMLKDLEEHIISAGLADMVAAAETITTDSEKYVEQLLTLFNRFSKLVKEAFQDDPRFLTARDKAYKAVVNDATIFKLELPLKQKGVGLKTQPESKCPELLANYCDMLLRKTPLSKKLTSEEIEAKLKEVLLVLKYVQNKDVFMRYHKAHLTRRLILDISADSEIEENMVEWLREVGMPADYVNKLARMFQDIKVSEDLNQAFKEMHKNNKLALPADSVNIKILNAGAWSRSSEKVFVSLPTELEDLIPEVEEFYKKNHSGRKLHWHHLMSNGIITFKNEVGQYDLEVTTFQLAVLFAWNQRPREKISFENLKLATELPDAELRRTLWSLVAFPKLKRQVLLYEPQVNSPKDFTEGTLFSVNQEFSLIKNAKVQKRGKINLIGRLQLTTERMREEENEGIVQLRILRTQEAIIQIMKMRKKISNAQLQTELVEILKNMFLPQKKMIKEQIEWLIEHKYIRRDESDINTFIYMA
UniProt P15311: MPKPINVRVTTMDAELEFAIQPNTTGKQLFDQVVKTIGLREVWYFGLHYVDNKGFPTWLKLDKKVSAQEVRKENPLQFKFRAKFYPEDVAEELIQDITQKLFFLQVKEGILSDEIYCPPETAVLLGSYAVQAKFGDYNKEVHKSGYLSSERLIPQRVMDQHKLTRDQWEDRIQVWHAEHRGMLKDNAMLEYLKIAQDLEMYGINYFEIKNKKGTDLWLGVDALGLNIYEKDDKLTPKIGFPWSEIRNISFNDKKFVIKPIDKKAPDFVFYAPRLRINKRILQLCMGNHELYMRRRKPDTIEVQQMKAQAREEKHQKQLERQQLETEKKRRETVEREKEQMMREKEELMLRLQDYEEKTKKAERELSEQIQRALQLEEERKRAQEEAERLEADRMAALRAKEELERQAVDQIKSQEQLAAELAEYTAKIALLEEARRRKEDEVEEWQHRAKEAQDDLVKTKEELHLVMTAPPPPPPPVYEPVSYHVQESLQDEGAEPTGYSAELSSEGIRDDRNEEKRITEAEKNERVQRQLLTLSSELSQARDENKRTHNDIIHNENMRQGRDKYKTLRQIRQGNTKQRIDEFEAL
UniProt P04406: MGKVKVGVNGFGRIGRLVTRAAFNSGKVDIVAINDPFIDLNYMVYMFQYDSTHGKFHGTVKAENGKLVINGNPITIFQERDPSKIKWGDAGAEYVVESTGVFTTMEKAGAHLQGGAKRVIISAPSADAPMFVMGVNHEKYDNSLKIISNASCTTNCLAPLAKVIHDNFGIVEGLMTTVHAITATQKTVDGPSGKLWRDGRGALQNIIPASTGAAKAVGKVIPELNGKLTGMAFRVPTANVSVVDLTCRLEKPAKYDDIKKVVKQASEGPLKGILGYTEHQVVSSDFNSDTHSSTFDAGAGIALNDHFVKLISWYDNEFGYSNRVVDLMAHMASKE
UniProt P51692: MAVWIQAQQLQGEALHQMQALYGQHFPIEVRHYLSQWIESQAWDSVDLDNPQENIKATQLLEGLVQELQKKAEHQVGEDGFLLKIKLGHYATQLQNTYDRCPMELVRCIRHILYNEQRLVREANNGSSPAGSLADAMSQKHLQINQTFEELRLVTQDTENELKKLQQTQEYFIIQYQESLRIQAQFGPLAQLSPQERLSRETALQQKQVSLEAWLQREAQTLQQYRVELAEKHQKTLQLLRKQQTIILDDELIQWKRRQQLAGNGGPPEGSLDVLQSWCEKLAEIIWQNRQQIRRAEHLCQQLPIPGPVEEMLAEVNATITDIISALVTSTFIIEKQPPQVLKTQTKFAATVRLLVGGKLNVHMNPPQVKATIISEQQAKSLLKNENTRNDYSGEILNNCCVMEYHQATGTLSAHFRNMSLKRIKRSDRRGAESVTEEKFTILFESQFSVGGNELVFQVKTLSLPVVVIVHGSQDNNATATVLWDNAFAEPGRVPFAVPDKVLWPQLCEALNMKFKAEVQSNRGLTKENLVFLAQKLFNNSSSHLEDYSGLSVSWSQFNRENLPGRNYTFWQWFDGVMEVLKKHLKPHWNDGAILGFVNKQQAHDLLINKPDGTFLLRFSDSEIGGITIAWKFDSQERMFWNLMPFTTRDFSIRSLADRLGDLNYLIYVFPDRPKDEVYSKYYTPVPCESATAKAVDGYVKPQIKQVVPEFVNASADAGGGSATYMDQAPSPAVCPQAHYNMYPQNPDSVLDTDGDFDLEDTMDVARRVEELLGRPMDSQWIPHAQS
UniProt Q15370: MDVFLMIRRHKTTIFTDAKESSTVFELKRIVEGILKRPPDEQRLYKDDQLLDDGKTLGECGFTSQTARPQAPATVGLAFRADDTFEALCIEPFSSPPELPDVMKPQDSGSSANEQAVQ
UniProt Q9UMX0: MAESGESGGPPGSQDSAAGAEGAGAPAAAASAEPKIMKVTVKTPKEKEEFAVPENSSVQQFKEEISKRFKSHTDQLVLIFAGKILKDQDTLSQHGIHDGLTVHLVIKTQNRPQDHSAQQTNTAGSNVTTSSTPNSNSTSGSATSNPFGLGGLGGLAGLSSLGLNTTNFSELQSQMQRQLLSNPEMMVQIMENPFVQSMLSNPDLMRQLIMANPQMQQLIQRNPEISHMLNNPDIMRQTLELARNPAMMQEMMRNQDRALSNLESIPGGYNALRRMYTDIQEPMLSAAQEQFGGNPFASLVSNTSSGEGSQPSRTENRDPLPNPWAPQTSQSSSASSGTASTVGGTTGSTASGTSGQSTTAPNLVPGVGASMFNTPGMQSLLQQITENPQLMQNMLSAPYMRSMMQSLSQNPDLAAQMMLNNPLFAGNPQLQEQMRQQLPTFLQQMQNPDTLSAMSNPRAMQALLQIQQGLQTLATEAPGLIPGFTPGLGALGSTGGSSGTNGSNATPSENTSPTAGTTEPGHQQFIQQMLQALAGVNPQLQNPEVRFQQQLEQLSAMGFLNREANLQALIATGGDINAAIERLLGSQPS
UniProt P29317, residues 24-976: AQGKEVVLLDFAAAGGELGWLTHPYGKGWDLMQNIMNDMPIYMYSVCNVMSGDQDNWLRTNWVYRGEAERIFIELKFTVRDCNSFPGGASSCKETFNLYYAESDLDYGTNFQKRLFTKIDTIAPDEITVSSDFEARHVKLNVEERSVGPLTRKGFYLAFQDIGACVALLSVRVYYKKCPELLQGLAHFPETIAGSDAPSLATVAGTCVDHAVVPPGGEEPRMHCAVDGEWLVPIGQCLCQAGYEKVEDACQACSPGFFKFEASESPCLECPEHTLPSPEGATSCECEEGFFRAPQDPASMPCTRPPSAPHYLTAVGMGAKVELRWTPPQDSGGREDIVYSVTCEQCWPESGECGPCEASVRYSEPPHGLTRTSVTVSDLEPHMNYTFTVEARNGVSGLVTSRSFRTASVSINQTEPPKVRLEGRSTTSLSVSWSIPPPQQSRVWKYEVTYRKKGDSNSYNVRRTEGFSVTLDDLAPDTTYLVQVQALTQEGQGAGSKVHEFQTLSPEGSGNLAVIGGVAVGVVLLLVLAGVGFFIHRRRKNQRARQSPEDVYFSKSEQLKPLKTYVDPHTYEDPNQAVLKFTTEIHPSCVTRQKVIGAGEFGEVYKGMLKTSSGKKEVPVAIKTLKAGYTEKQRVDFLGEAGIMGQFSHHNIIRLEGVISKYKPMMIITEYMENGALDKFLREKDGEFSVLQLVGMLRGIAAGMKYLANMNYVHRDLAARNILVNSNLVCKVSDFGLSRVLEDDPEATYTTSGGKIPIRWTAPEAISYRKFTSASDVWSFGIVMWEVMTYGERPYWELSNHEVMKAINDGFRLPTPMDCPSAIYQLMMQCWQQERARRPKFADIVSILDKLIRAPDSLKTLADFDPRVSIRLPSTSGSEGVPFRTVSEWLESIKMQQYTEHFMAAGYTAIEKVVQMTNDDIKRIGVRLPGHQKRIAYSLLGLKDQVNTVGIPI
UniProt P36543: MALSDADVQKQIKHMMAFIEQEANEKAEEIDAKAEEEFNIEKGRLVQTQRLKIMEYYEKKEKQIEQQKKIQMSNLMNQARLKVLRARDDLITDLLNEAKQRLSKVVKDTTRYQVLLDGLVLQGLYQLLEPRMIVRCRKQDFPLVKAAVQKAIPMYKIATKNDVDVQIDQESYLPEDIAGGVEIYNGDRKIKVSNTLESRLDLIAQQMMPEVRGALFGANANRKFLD

T1: Myc-BirA-T7-mSOCS2 (mouse) (UniProt O35717)
T1 sequence: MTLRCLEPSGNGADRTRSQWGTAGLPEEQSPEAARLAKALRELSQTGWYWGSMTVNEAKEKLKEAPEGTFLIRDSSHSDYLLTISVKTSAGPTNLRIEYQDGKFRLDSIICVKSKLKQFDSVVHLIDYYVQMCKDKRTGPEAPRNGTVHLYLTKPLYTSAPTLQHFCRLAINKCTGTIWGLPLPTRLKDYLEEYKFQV

T2: Myc-BirA-T7-mSOCS6 (mouse) (UniProt Q9JLY0)
T2 sequence: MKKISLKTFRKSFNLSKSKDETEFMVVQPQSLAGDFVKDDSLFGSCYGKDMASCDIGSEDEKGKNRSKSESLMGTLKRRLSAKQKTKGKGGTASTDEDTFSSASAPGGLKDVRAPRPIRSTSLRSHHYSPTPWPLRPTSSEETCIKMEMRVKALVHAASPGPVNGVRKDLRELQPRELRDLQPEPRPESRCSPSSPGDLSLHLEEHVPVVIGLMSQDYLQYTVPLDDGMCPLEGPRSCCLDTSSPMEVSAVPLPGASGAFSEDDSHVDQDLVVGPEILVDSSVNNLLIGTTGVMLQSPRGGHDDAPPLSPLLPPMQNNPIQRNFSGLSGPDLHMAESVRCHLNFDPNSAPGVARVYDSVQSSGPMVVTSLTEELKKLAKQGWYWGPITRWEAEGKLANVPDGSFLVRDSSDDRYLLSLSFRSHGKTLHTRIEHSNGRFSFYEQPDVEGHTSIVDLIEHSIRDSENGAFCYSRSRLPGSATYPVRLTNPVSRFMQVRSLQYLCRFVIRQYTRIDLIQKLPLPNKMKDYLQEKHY

T3: 3xFlag-mSOCS6 (mouse) (UniProt Q9JLY0)
T3 sequence: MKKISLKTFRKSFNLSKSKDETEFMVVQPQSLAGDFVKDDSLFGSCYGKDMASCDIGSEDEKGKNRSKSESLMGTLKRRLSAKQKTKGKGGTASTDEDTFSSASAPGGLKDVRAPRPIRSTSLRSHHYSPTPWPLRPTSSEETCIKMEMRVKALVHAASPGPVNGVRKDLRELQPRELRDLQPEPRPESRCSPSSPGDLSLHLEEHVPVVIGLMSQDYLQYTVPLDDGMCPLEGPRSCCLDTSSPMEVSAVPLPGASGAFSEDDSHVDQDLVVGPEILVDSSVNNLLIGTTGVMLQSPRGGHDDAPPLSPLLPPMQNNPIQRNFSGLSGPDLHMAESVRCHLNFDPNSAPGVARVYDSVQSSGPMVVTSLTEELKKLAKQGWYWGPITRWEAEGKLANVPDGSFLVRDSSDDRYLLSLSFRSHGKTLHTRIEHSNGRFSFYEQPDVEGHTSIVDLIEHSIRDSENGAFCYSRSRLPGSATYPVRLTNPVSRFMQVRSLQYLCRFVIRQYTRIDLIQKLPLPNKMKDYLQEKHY

T4: SOCS6 bait of the two proteomic screens (Myc-BirA-T7-mSOCS6 or 3xFlag-mSOCS6) (mouse) (UniProt Q9JLY0)
T4 sequence: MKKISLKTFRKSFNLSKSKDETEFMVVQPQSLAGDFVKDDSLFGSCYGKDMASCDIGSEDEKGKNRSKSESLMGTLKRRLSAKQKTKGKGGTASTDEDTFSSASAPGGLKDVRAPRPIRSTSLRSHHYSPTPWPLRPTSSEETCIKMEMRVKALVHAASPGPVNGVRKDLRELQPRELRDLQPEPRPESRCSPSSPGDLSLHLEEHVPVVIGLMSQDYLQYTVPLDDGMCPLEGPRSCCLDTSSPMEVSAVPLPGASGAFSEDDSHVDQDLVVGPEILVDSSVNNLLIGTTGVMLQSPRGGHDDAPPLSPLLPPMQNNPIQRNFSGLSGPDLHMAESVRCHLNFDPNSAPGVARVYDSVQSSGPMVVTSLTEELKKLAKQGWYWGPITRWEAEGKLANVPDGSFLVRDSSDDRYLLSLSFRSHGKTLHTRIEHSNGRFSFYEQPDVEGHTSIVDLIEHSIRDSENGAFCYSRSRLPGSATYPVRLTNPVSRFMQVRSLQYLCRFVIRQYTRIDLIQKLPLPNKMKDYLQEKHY

B1: DCUN1D5 (DCNL5) (protein, UniProt Q9BTE7 1-237)
chain: MPVKKKRKSPGVAAAVAEDGGLKKCKISSYCRSQPPARLISGEEHFSSKKCLAWFYEYAGPDEVVGPEGMEKFCEDIGVEPENIIMLVLAWKLEAESMGFFTKEEWLKGMTSLQCDCTEKLQNKFDFLRSQLNDISSFKNIYRYAFDFARDKDQRSLDIDTAKSMLALLLGRTWPLFSVFYQYLEQSKYRVMNKDQWYNVLEFSRTVHADLSNYDEDGAWPVLLDEFVEWQKVRQTS
B2: TES (protein, UniProt Q9UGI8 1-421)
chain: MDLENKVKKMGLGHEQGFGAPCLKCKEKCEGFELHFWRKICRNCKCGQEEHDVLLSNEEDRKVGKLFEDTKYTTLIAKLKSDGIPMYKRNVMILTNPVAAKKNVSINTVTYEWAPPVQNQALARQYMQMLPKEKQPVAGSEGAQYRKKQLAKQLPAHDQDPSKCHELSPREVKEMEQFVKKYKSEALGVGDVKLPCEMDAQGPKQMNIPGGDRSTPAAVGAMEDKSAEHKRTQYSCYCCKLSMKEGDPAIYAERAGYDKLWHPACFVCSTCHELLVDMIYFWKNEKLYCGRHYCDSEKPRCAGCDELIFSNEYTQAENQNWHLKHFCCFDCDSILAGEIYVMVNDKPVCKPCYVKNHAVVCQGCHNAIDPEVQRVTYNNFSWHASTECFLCSCCSKCLIGQKFMPVEGMVFCSVECKKRMS
B3: Shroom1 (protein, UniProt Q2M3G4 1-852)
chain: MEALGPGGDRASPASSTSSLDLWHLSMRADSAYSSFSAASGGPEPRTQSPGTDLLPYLDWDYVRVVWGGPGPAPPDAALCTSPRPRPAVAARSGPQPTEVPGTPGPLNRQATPLLYALAAEAEAAAQAAEPPSPPASRAAYRQRLQGAQRRVLRETSFQRKELRMSLPARLRPTVPARPPATHPRSASLSHPGGEGEPARSRAPAPGTAGRGPLANQQRKWCFSEPGKLDRVGRGGGPARECLGEACSSSGLPGPEPLEFQHPALAKFEDHEVGWLPETQPQGSMNLDSGSLKLGDAFRPASRSRSASGEVLGSWGGSGGTIPIVQAVPQGAETPRPLFQTKLSRFLPQKEAAVMYPAELPQSSPADSEQRVSETCIVPAWLPSLPDEVFLEEAPLVRMRSPPDPHASQGPPASVHASDQPYGTGLGQRTGQVTVPTEYPLHECPGTAGADDCWQGVNGSVGISRPTSHTPTGTANDNIPTIDPTGLTTNPPTAAESDLLKPVPADALGLSGNDTPGPSHNTALARGTGQPGSRPTWPSQCLEELVQELARLDPSLCDPLASQPSPEPPLGLLDGLIPLAEVRAAMRPACGEAGEEAASTFEPGSYQFSFTQLLPAPREETRLENPATHPVLDQPCGQGLPAPNNSIQGKKVELAARLQKMLQDLHTEQERLQGEAQAWARRQAALEAAVRQACAPQELERFSRFMADLERVLGLLLLLGSRLARVRRALARAASDSDPDEQASLLQRLRLLQRQEEDAKELKEHVARRERAVREVLVRALPVEELRVYCALLAGKAAVLAQQRNLDERIRLLQDQLDAIRDDLGHHAPSPSPARPPGTCPPVQPPFPLLLT
B4: SCAMP3 (protein, UniProt O14828 1-347)
chain: MAQSRDGGNPFAEPSELDNPFQDPAVIQHRPSRQYATLDVYNPFETREPPPAYEPPAPAPLPPPSAPSLQPSRKLSPTEPKNYGSYSTQASAAAATAELLKKQEELNRKAEELDRRERELQHAALGGTATRQNNWPPLPSFCPVQPCFFQDISMEIPQEFQKTVSTMYYLWMCSTLALLLNFLACLASFCVETNNGAGFGLSILWVLLFTPCSFVCWYRPMYKAFRSDSSFNFFVFFFIFFVQDVLFVLQAIGIPGWGFSGWISALVVPKGNTAVSVLMLLVALLFTGIAVLGIVMLKRIHSLYRRTGASFQKAQQEFAAGVFSNPAVRTAAANAAAGAAENAFRAP
B5: YWHAQ (protein, UniProt P27348 1-245)
chain: MEKTELIQKAKLAEQAERYDDMATCMKAVTEQGAELSNEERNLLSVAYKNVVGGRRSAWRVISSIEQKTDTSDKKLQLIKDYREKVESELRSICTTVLELLDKYLIANATNPESKVFYLKMKGDYFRYLAEVACGDDRKQTIDNSQGAYQEAFDISKKEMQPTHPIRLGLALNFSVFYYEILNNPELACTLAKTAFDEAIAELDTLNEDSYKDSTLIMQLLRDNLTLWTSDSAGEECDAAEGAEN
B6: YWHAG (protein, UniProt P61981 1-247)
chain: MVDREQLVQKARLAEQAERYDDMAAAMKNVTELNEPLSNEERNLLSVAYKNVVGARRSSWRVISSIEQKTSADGNEKKIEMVRAYREKIEKELEAVCQDVLSLLDNYLIKNCSETQYESKVFYLKMKGDYYRYLAEVATGEKRATVVESSEKAYSEAHEISKEHMQPTHPIRLGLALNYSVFYYEIQNAPEQACHLAKTAFDDAIAELDTLNEDSYKDSTLIMQLLRDNLTLWTSDQQDDDGGEGNN
B7: YWHAH (protein, UniProt Q04917 1-246)
chain: MGDREQLLQRARLAEQAERYDDMASAMKAVTELNEPLSNEDRNLLSVAYKNVVGARRSSWRVISSIEQKTMADGNEKKLEKVKAYREKIEKELETVCNDVLSLLDKFLIKNCNDFQYESKVFYLKMKGDYYRYLAEVASGEKKNSVVEASEAAYKEAFEISKEQMQPTHPIRLGLALNFSVFYYEIQNAPEQACLLAKQAFDDAIAELDTLNEDSYKDSTLIMQLLRDNLTLWTSDQQDEEAGEGN

Legend:
[1] = biological target: SOCS2 bait of the two proteomic screens (Myc-BirA-T7-mSOCS2 or 3xFlag-hSOCS2) (not stated (human or mouse cDNA cloned)) (UniProt O14508); assay: proximity labelling + affinity purification with mass spectrometry; hits of the BioID and Flag AP-MS screens in Flp-In T-Rex 293 (vanadate, MLN4924, doxycycline) for which the text does not tell which of the two methods found them; Bayesian false discovery rate <10%
[2] = biological target: T1, Myc-BirA-T7-mSOCS2 (mouse); assay: proximity labelling; BioID read by immunoblot: BirA fusions transiently expressed in HeLa cells, lysates purified with streptavidin and probed for the candidate (Supplementary Fig. S1)
[3] = biological target: T2, Myc-BirA-T7-mSOCS6 (mouse); assay: as above
3xFlag-mSOCS6 (mouse) = biological target: T3, 3xFlag-mSOCS6 (mouse); assay: affinity purification with mass spectrometry; Flag AP-MS: 3xFlag baits stably integrated in Flp-In T-Rex 293; 75 µM vanadate, 1 µM MLN4924, 1 µg/mL doxycycline for 24 hr; FLAG-M2 magnetic beads, on-bead trypsin; SAINTq, Bayesian false discovery rate <7.7%
[4] = biological target: T2, Myc-BirA-T7-mSOCS6 (mouse); assay: proximity labelling; BioID with LC-MS/MS: Myc-BirA-T7 baits stably integrated in Flp-In T-Rex 293; 75 µM vanadate, 1 µM MLN4924, 1 µg/mL doxycycline and 2 mM biotin for 24 hr; RIPA lysis, streptavidin-Sepharose beads, on-bead trypsin; SAINTq, Bayesian false discovery rate <10%
BirA-SOCS2^R73K (mouse) = BirA-SOCS2^R73K (mouse) (UniProt O35717); assay: proximity labelling; BioID read by immunoblot: BirA fusions transiently expressed in HeLa cells, lysates purified with streptavidin and probed for the candidate (Supplementary Fig. S1)
[5] = biological target: T4, SOCS6 bait of the two proteomic screens (Myc-BirA-T7-mSOCS6 or 3xFlag-mSOCS6) (mouse); assay: proximity labelling + affinity purification with mass spectrometry; hits of the BioID and Flag AP-MS screens in Flp-In T-Rex 293 (vanadate, MLN4924, doxycycline) for which the text does not tell which of the two methods found them; Bayesian false discovery rate <10%
[6] = biological target: T1, Myc-BirA-T7-mSOCS2 (mouse); assay: proximity labelling; BioID read by immunoblot: 293T transiently transfected; 75 µM sodium orthovanadate, 1 µM MLN4924 and 2 mM biotin for 24 hr; streptavidin agarose beads

Row | Molecule | binding [1] | binding [5] | further results
1 | COPS2 (from UniProt P61201 1-443) | binds |  | 
2 | COPS3 (from UniProt Q9UNS2 1-423) | binds |  | 
3 | CTNNB1 (β-catenin) (from UniProt P35222 1-781) | binds |  | binding [2]: binds; binding [3]: no binding
4 | Crk (from UniProt P46108 1-304) | binds |  | binding [2]: binds; binding [3]: no binding
5 | Cullin5 (from UniProt Q93034 1-780) |  |  | binding [3]: binds; binding (3xFlag-mSOCS6 (mouse)): binds; binding [4]: binds
6 | Ezrin (from UniProt P15311 1-586) | binds |  | binding [2]: binds; binding [3]: no binding
7 | GAPDH (from UniProt P04406 1-335) |  |  | binding (BirA-SOCS2^R73K (mouse)): no binding
8 | STAT5b (from UniProt P51692 1-787) | binds |  | 
9 | TCEB2 (ElgB) (from UniProt Q15370 1-118) |  |  | binding (3xFlag-mSOCS6 (mouse)): binds; binding [4]: binds
10 | UBQLN1 (PLIC1) (from UniProt Q9UMX0 1-589) |  | binds | 
11 | WDR28 (human (endogenous in Flp-In T-Rex 293)) |  | binds | 
12 | WDR40 (human (endogenous in Flp-In T-Rex 293)) |  | binds | 
13 | ephrin type-A receptor 2 (EphA2), endogenous (from UniProt P29317 24-976) | binds |  | binding [6]: binds; binding [2]: binds; binding [3]: no binding
14 | vacuolar ATPase subunit ATP6V1E1 (from UniProt P36543 1-226) | binds |  | 
15 | B1 | binds | binds | 
16 | B2 |  | binds | 
17 | B3 | binds |  | 
18 | B4 | binds |  | 
19 | B5 |  | binds | 
20 | B6 |  | binds | 
21 | B7 |  | binds | 

These are yes or no findings as the source states them, for the method shown. In cells and extracts the contact can be indirect. A yes stands for co-enrichment or nearness to the bait. Other partners may have been found. For some of these results: A no says only that the protein was not detected with the bait. For some of these results: Sequences can lack the tags named with a protein.
